Data as given in paper doi:10.1101/2023.02.11.528118.
Results are given in words; binding and its absence hold for the method and conditions named. Binding seen in cells or lysates may run through a third protein. These calls come from enrichment with a bait or labelling near it, and not all partners need be listed.

The chains behind the UniProt entries cited, without tags or fusion partners.
UniProt Q4J6C6: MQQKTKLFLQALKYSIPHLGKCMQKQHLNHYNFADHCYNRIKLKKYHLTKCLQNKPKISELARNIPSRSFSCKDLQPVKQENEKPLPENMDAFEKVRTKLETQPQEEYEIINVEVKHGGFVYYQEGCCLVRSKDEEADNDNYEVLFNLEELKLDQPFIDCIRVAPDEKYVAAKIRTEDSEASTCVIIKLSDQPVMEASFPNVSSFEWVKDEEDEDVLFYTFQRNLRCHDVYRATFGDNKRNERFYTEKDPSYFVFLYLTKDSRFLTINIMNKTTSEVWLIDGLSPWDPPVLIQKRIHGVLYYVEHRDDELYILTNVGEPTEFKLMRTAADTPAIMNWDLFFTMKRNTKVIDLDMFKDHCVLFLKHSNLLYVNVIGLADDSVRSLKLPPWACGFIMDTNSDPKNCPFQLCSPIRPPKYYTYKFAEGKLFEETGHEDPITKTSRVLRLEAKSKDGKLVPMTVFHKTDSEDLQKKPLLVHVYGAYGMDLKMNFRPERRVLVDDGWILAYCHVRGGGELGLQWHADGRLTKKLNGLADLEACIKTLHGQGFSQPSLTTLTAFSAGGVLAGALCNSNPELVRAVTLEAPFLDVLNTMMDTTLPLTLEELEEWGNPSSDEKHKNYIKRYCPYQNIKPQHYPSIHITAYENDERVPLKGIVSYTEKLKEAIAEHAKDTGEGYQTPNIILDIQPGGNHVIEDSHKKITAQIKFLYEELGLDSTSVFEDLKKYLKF

Biological target: PREPL(L)-Flag (prolyl-endopeptidase like, long mitochondrial isoform, Flag-tagged) (human) (UniProt Q4J6C6)
Assay: affinity purification with mass spectrometry

binding: binds
B1: FASTKD4 (protein, UniProt Q969Z0 108-631)
chain: SHLLSEKPEDKGLLIQDAHFHQLLCLLNSQIASVWHGTLSKLLGSLYALGIPKASKELQSVEQEVRWRMRKLKYKHLAFLAESCATLSQEQHSQELLAELLTHLERRWTEIEDSHTLVTVMMKVGHLSEPLMNRLEDKCLELVEHFGPNELRKVLVMLAAQSRRSVPLLRAISYHLVQKPFSLTKDVLLDVAYAYGKLSFHQTQVSQRLATDLLSLMPSLTSGEVAHCAKSFALLKWLSLPLFEAFAQHVLNRAQDITLPHLCSVLLAFARLNFHPDQEDQFFSLVHEKLGSELPGLEPALQVDLVWALCVLQQAREAELQAVLHPEFHIQFLGGKSQKDQNTFQKLLHINATALLEYPEYSGPLLPASAVAPGPSALDRKVTPLQKELQETLKGLLGSADKGSLEVATQYGWVLDAEVLLDSDGEFLPVRDFVAPHLAQPTGSQSPPPGSKRLAFLRWEFPNFNSRSKDLLGRFVLARRHIVAAGFLIVDVPFYEWLELKSEWQKGAYLKDKMRKAVAEELAK
